In patent publication US11092596B2, “Material and method to screen proteasome stimulators” (Purdue Research Foundation, priority 2017, dated 2021):
Not every entry of the source has a single result; some have several. This list holds those alone. An entry can have further records. The values listed for one entry do not match, cause unknown; they may come from other doses, times, organisms or constructs than stated.

Biological target: chymotrypsin-like activity of the 20S CP (Homo sapiens, UniProt P28074)
Assay: Kinetic assay, CT-L FRET reporter hydrolysis by purified 20S CP
Type: biochemical
Settings: maximum of dose response curve

## Cc1c(C)c2c(c(C)c1OC(=O)CCC(=O)O)CCC(C)(CCCC(C)CCCC(C)CCCC(C)C)O2 (stereo not shown)
  20S CP stimulation over basal level (dose response curve): 150% and 50%
